Experimental data reported in patent US20220151976A1 (UNIVERSITY OF TOLEDO, published 2022).
These are yes or no findings as the source states them, for the method shown. For some assays here: Binding seen in cells or lysates may run through a third protein. Some binding calls cover weakened binding; strength is not graded here. For some assays here: Where a sequence is shown, tags or fusion partners need not be part of it. Each block holds one molecule with its values, some of them ahead of it.

Amino acid sequences for entries named in this document (tags omitted). A change or cut given only in a name is not applied to a line headed by its entry. Residues count along the entry.
UniProt P60842, residues 2-406: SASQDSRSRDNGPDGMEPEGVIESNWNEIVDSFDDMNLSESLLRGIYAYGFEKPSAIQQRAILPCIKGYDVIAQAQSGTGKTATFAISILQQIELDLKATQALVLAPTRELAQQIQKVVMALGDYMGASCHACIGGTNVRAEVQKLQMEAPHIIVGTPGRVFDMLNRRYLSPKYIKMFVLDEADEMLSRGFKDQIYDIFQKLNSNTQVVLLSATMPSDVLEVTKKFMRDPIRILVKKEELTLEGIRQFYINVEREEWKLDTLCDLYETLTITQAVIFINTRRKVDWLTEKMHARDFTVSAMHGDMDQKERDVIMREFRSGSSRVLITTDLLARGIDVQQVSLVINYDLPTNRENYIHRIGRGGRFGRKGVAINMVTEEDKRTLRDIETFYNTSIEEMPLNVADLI
UniProt P23588: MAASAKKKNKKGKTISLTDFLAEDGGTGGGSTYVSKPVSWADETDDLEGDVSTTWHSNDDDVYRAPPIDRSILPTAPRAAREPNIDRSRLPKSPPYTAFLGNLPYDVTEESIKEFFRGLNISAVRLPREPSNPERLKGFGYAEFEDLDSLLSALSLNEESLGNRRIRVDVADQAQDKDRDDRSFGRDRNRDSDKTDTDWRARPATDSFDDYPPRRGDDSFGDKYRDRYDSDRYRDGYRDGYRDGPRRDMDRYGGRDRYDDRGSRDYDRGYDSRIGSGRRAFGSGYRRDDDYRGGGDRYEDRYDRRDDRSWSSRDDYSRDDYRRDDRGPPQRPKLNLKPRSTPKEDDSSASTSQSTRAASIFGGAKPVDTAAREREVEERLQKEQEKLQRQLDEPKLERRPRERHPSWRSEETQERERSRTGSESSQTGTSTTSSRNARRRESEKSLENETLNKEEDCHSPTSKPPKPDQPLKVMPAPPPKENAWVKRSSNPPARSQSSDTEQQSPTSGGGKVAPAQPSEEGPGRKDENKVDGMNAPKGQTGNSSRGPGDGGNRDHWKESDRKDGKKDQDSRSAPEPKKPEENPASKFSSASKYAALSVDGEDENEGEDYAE
UniProt P06730: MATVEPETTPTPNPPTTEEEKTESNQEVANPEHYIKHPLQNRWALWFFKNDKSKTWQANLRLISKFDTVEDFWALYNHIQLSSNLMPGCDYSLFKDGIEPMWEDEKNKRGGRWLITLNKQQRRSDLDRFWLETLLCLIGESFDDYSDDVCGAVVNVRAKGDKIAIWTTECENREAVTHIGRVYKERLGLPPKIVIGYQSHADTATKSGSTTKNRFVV
UniProt Q04637: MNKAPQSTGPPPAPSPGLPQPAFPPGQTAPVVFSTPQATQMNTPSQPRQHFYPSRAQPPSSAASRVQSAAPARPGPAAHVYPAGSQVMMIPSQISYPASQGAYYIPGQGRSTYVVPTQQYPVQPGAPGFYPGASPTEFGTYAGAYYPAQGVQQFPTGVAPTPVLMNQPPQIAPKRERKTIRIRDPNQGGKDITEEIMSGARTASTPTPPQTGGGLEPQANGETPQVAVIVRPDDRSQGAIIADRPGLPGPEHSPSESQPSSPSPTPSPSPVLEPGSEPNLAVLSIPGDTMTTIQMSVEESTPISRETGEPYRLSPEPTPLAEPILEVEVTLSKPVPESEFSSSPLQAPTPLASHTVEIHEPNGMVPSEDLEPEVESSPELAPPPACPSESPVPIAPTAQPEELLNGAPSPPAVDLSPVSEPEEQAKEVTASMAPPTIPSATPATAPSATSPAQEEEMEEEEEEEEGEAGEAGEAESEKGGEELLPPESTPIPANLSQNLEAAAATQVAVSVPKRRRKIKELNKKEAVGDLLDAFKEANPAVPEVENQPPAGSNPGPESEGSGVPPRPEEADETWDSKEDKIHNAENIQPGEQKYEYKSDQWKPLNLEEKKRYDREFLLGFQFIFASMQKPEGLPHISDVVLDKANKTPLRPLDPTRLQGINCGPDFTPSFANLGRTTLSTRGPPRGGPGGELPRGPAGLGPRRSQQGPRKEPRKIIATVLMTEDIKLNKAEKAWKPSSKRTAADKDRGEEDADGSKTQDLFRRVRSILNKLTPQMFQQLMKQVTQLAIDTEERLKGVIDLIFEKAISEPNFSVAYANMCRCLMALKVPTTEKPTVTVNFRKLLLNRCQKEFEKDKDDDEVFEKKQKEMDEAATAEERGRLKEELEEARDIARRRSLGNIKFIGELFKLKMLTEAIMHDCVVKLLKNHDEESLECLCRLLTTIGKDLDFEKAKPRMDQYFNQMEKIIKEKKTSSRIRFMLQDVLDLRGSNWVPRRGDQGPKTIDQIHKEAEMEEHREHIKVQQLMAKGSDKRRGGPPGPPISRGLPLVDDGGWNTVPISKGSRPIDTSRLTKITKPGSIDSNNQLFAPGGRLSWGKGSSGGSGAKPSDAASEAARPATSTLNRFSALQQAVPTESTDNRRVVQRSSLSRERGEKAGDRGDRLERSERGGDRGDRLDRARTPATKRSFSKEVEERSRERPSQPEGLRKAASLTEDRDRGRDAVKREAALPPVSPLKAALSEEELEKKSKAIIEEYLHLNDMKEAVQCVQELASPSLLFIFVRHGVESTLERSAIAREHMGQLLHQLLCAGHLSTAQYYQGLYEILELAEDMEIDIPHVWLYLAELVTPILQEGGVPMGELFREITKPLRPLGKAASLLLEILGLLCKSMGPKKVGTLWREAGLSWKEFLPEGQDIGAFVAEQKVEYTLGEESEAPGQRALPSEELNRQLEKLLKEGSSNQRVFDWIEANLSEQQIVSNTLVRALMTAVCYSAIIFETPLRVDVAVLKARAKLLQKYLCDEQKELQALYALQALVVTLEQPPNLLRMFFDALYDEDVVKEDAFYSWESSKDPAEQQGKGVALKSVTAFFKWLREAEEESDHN

Legend:
[1] = molecular target: T1, LIM and SH3 Protein 1 (LASP1), endogenous in 231S cells (human) (UniProt Q14847); assay: co-immunoprecipitation (eIF4A IP, LASP1 blot) from 231S lysate
T1 sequence (looked up): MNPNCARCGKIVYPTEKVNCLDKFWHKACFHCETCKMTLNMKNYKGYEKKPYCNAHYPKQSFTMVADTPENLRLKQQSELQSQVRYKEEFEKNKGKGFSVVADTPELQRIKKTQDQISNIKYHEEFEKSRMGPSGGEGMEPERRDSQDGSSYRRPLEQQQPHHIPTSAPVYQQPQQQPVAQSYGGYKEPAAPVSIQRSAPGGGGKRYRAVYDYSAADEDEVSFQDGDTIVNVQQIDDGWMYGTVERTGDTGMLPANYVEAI

[2] = molecular target: Eukaryotic initiation factor 4A (eIF4A1), endogenous in 231S cells (human) (UniProt P60842); assay: GST-LASP1 pulldown
[3] = molecular target: Eukaryotic initiation factor 4B (eIF4B), endogenous in 231S cells (human) (UniProt P23588); assay: GST-LASP1 pulldown
[4] = molecular target: Eukaryotic initiation factor 4A (eIF4A1), endogenous in 231S cells (human) (UniProt P60842); assay: GST-LASP1 pulldown from 231S lysate
[5] = molecular target: Eukaryotic initiation factor 4A (eIF4A1), endogenous in 231S cells (human) (UniProt P60842); assay: GST-LASP1 pulldown from 231S lysate, Western blot
[6] = molecular target: Eukaryotic initiation factor 4B (eIF4B), endogenous in 231S cells (human) (UniProt P23588); assay: GST-LASP1 pulldown from 231S lysate, Western blot
[7] = molecular target: purified recombinant eIF4B (UniProt P23588); assay: GST-LASP1 pulldown of purified protein (legend of FIGS. 4A-4F)
[8] = molecular target: purified recombinant eIF4B (UniProt P23588); assay: GST-LASP1 beads with purified recombinant protein, Western blot
[9] = molecular target: purified recombinant eIF4B (UniProt P23588); assay: equimolar purified proteins mixed in solution, captured with glutathione beads, Western blot
[10] = molecular target: T2, eukaryotic initiation factor 4F complex (eIF4F), endogenous in 231S cells (human) (UniProt P06730+P60842+Q04637); assay: m7-GTP pulldown together with direct binding studies
[11] = molecular target: T2, eukaryotic initiation factor 4F complex (eIF4F), endogenous in 231S cells (human); assay: co-immunoprecipitation and m7GTP pulldown in 231S cells (legend of FIGS. 3A-3E)

binding [1]: binds
Molecule: Eukaryotic initiation factor 4A (eIF4A1), endogenous in 231S cells (from UniProt P60842 2-406) (enzyme)

binding [2]: binds | binding [3]: binds | binding [4]: binds | binding [5]: binds | binding [6]: binds | binding [7]: binds | binding [8]: binds | binding [9]: binds
B1: GST-LASP1 (human LASP1 open reading frame in pGEX-6P-1, made in E. coli BL21) (protein, UniProt Q14847 1-261, looked up, not shown: a dimerising Fc or GST)
chain: MNPNCARCGKIVYPTEKVNCLDKFWHKACFHCETCKMTLNMKNYKGYEKKPYCNAHYPKQSFTMVADTPENLRLKQQSELQSQVRYKEEFEKNKGKGFSVVADTPELQRIKKTQDQISNIKYHEEFEKSRMGPSGGEGMEPERRDSQDGSSYRRPLEQQQPHHIPTSAPVYQQPQQQPVAQSYGGYKEPAAPVSIQRSAPGGGGKRYRAVYDYSAADEDEVSFQDGDTIVNVQQIDDGWMYGTVERTGDTGMLPANYVEAI

binding [10]: binds | binding [11]: binds
B2: LIM and SH3 Protein 1 (LASP1), endogenous in 231S cells (other, human, UniProt Q14847 1-261, looked up)
chain: MNPNCARCGKIVYPTEKVNCLDKFWHKACFHCETCKMTLNMKNYKGYEKKPYCNAHYPKQSFTMVADTPENLRLKQQSELQSQVRYKEEFEKNKGKGFSVVADTPELQRIKKTQDQISNIKYHEEFEKSRMGPSGGEGMEPERRDSQDGSSYRRPLEQQQPHHIPTSAPVYQQPQQQPVAQSYGGYKEPAAPVSIQRSAPGGGGKRYRAVYDYSAADEDEVSFQDGDTIVNVQQIDDGWMYGTVERTGDTGMLPANYVEAI
notes: Endogenous intracellular protein; detected or immunoprecipitated with mouse LASP1 antibody 8C6 (Biolegend 909301); also called endogenous LASP1
